Test results from the supplement of paper PMC6411743.
± gives the standard deviation of the averaged measurements. The list shows a part of the results.

The chains behind the UniProt entries cited, without tags or fusion partners. Where a name states a change or a piece, a line headed by the entry shows the natural chain unless it says otherwise.
UniProt O75586: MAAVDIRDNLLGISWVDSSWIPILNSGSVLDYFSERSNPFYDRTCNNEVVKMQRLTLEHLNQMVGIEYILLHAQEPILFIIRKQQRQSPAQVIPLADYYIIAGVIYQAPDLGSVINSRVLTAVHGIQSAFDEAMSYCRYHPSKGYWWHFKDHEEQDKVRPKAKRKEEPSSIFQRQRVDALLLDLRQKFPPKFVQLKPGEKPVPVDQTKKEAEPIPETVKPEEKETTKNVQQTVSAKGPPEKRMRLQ
UniProt O94973, whole entry: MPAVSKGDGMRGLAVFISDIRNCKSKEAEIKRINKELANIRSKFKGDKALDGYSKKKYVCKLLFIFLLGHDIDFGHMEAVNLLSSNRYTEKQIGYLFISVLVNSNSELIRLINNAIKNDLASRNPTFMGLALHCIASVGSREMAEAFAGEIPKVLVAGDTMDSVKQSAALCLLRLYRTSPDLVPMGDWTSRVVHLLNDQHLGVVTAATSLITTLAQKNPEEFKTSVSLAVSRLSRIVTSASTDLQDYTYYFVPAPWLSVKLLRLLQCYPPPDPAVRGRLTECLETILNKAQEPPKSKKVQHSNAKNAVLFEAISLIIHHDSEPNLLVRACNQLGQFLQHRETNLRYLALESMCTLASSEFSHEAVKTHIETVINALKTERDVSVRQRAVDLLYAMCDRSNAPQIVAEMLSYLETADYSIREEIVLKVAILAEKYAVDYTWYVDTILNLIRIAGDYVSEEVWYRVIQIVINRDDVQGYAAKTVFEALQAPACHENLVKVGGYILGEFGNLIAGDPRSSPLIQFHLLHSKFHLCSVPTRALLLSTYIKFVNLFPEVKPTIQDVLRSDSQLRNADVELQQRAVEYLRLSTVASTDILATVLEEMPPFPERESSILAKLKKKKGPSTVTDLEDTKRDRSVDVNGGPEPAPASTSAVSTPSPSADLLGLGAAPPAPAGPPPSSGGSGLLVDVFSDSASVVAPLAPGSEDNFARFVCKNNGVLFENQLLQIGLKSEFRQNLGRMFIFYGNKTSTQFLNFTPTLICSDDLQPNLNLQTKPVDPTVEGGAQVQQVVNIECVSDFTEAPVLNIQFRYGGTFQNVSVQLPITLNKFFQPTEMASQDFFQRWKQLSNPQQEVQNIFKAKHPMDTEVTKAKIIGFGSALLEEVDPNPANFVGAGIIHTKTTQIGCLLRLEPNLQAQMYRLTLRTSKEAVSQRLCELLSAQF
UniProt Q9NP79: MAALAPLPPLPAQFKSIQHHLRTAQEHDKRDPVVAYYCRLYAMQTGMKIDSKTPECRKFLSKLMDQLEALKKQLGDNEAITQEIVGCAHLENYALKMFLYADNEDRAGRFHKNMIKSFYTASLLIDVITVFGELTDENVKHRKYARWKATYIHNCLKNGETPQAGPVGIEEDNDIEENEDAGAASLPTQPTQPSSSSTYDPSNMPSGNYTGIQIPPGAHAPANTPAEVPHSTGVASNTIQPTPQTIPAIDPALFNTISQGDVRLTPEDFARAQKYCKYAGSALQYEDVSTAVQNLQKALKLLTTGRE
UniProt I3L1I5, whole entry, looked up: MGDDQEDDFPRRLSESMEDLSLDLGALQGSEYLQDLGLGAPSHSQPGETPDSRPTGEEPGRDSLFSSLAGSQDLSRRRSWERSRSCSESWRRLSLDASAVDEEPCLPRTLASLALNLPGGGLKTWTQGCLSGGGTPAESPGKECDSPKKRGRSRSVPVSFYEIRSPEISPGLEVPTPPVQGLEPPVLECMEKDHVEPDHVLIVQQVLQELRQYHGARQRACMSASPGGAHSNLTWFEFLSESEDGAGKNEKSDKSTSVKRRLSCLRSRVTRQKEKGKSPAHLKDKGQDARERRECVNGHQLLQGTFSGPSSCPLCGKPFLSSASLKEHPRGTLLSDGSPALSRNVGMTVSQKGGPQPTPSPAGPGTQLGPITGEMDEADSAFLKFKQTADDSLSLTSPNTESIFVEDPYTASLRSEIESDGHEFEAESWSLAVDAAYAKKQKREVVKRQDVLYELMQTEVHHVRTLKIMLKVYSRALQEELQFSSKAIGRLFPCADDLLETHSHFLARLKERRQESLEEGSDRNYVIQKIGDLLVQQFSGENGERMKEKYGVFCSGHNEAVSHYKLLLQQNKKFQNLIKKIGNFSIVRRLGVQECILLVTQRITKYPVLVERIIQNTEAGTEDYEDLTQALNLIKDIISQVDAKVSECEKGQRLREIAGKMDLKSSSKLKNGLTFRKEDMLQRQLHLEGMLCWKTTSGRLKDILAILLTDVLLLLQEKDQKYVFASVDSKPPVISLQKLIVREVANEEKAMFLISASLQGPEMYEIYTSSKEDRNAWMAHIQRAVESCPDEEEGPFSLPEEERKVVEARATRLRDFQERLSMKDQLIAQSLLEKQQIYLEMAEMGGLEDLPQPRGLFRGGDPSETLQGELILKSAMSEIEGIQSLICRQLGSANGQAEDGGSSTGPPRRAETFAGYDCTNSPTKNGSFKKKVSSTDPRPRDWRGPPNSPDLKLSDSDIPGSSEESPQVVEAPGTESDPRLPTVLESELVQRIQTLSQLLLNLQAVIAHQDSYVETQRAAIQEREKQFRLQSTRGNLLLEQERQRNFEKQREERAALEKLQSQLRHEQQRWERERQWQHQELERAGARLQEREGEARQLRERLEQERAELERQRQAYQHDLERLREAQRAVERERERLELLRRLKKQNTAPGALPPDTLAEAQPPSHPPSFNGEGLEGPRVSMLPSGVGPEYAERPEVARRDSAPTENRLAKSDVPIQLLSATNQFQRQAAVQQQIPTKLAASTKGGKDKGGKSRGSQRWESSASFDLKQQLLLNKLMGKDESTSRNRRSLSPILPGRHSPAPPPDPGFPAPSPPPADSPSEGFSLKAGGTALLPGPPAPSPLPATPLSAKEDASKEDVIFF
UniProt Q02218: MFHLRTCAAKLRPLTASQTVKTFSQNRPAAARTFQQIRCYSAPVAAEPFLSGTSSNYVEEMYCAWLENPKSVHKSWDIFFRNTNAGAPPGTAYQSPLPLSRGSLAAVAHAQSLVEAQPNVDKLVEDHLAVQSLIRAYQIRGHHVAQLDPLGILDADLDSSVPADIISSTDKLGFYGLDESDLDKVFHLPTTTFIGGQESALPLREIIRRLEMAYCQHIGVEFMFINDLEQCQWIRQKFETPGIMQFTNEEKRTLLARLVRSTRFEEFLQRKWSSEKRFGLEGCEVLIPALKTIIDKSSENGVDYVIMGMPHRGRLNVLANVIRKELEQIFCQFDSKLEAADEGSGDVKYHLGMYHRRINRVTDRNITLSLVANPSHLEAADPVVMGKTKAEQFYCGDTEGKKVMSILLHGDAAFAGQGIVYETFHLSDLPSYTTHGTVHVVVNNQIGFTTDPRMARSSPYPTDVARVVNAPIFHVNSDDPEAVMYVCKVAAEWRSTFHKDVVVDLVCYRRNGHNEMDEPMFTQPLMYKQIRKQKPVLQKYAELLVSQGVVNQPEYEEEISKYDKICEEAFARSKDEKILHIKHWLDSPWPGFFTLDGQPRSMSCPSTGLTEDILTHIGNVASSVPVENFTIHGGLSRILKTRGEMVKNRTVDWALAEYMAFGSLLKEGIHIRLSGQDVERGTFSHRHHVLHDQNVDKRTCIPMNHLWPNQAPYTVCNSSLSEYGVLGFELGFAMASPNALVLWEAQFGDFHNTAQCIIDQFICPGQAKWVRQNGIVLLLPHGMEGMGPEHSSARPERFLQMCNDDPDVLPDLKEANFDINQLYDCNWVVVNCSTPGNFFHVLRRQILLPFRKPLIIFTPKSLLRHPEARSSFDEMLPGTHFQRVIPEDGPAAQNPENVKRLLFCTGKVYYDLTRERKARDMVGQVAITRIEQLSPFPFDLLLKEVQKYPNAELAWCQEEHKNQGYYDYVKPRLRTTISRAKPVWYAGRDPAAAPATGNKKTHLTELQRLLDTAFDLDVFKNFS
UniProt O43681: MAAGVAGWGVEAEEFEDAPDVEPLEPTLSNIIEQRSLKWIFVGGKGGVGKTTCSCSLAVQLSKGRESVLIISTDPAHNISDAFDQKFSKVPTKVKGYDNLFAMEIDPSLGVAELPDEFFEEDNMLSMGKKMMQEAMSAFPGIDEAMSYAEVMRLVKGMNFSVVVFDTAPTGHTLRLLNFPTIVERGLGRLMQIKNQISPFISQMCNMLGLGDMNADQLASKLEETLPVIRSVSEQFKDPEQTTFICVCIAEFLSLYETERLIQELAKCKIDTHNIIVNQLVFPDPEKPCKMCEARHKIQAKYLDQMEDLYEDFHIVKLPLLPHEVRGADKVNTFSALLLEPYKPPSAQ
UniProt Q9BWM7: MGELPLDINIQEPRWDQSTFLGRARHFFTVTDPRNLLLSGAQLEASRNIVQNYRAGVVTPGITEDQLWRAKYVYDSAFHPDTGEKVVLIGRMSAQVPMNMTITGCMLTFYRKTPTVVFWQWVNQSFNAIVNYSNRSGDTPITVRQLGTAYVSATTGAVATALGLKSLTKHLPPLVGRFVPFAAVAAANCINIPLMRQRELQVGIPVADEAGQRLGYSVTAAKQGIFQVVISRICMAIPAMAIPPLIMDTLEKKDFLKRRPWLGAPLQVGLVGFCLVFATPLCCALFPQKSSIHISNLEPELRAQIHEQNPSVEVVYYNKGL
UniProt Q8IZQ5, whole entry, looked up: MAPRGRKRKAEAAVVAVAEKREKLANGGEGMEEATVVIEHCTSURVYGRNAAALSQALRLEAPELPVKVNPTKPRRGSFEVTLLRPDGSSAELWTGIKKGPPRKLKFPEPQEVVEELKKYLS
UniProt Q9Y4K4: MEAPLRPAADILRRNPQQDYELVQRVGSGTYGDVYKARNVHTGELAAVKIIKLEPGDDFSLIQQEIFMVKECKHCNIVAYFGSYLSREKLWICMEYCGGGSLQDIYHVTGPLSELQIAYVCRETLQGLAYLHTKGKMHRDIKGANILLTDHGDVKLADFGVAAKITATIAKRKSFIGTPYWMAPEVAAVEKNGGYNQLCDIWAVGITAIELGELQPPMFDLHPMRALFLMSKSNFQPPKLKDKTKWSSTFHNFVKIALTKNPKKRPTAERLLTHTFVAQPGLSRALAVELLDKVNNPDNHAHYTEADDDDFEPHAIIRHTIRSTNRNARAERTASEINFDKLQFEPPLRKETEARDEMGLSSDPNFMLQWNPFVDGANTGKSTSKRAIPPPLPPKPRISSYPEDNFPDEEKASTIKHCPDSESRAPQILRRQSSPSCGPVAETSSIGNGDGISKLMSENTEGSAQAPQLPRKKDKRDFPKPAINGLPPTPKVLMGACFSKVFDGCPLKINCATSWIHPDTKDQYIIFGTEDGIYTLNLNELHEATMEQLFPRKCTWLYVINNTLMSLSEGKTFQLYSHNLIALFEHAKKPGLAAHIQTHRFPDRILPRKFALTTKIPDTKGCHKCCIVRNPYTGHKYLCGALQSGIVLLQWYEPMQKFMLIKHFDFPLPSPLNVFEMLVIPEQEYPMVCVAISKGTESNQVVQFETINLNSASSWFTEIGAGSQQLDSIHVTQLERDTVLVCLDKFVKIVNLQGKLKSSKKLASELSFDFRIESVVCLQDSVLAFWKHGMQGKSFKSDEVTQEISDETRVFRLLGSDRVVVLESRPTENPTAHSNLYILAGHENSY
UniProt Q6IAN0: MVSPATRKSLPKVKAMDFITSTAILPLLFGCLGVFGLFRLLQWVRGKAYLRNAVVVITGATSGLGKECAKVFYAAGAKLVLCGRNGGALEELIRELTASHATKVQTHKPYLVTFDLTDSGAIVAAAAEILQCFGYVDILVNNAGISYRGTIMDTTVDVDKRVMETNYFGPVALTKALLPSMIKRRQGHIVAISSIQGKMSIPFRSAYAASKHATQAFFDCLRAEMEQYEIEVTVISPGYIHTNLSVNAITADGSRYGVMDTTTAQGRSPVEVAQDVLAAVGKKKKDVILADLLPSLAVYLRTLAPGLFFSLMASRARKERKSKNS
UniProt P52657, whole entry: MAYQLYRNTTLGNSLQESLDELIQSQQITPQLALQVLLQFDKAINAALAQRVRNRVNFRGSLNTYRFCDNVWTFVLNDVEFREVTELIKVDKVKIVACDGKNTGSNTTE
UniProt P53365: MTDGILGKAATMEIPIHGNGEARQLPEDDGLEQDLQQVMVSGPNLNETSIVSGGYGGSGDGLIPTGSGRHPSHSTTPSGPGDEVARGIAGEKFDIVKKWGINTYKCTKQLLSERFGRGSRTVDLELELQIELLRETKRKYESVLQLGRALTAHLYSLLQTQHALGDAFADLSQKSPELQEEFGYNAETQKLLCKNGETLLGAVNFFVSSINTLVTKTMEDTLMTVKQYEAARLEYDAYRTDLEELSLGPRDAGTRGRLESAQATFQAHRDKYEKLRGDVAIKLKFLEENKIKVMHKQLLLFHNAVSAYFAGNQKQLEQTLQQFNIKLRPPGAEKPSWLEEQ

Compound: Nc1nc2c(ncn2[C@@H]2O[C@H](COP(=O)(O)OP(=O)(O)OP(=O)(O)O)[C@@H](O)[C@H]2O)c(=O)[nH]1 [guanosine triphosphate]
Experiment: NP40-soluble protein abundance relative to vehicle (solubility fold change) (ratio); higher = more soluble protein in presence of GTP
How it was run: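 Across three independent experiments, values are fold changes against the detergent-processed vehicle for each replicate, based on vsn-normalised intensities. The samples were Jurkat crude lysate treated with eight concentrations (0.1 to 10 mM) for 10 min at room temperature and then 3 min at 37 °C. Lysate was solubilised with 0.8% NP40 and benzonase, ultracentrifuged, and the supernatant analysed by TMT-labelled LC-MS/MS.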

Target	NP40-soluble protein abundance (concentration: 0.1mM)	NP40-soluble protein abundance (concentration: 0.5mM)	NP40-soluble protein abundance (concentration: 1mM)	NP40-soluble protein abundance (concentration: 2mM)	NP40-soluble protein abundance (concentration: 4mM)	NP40-soluble protein abundance (concentration: 6mM)	NP40-soluble protein abundance (concentration: 8mM)	NP40-soluble protein abundance (concentration: 10mM)
A0A0C4DFM1|Q92544 (UniProt Q92544)	1.04 ± 0.088	1.07 ± 0.13	0.929 ± 0.092	0.958 ± 0.12	0.943 ± 0.099	0.905 ± 0.085	0.894 ± 0.076	0.878 ± 0.14
A0A087WYL7|G3V4A5 and related entries (UniProt O75586)	0.988 ± 0.034	1.07 ± 0.055	1.13 ± 0.085	1.13 ± 0.11	1.19 ± 0.2	1.2 ± 0.13	1.24 ± 0.21	1.27 ± 0.25
A0A087WXM6|A0A0A6YYL6|J3KRX5 and related entries (UniProt P18621)	0.938 ± 0.04	1.02 ± 0.073	1.02 ± 0.11	0.933 ± 0.11	0.877 ± 0.15	0.876 ± 0.15	0.771 ± 0.16	0.867 ± 0.14
A0A087X256|Q2M389 (UniProt Q2M389)	1.04 ± 0.058	1.01 ± 0.097	0.973 ± 0.048	0.975 ± 0.028	0.957 ± 0.028	0.973 ± 0.044	1.02 ± 0.068	0.889 ± 0.024
A0A0G2JS82|O94973 (UniProt O94973)	1.07 ± 0.024	1.077 ± 0.008	1.07 ± 0.022	1.08 ± 0.024	1.06 ± 0.013	1.05 ± 0.011	1.044 ± 0.0099	1.055 ± 0.0092
A0A0A0MRV0|Q9P2E9 and related entries (UniProt Q9P2E9)	0.91 ± 0.035	0.946 ± 0.043	1.02 ± 0.016	0.987 ± 0.049	0.956 ± 0.05	1.02 ± 0.054	1.08 ± 0.02	1.13 ± 0.078
A0A087X0M0|Q7Z5L2 and related entries (UniProt Q7Z5L2)	1.02 ± 0.061	1.013 ± 0.0096	1.02 ± 0.052	0.973 ± 0.014	1.04 ± 0.032	0.987 ± 0.051	0.953 ± 0.054	1 ± 0.058
A0A087X011|E9PES4 and related entries (UniProt Q9Y496)	1.02 ± 0.012	1.025 ± 0.01	0.963 ± 0.019	0.957 ± 0.013	0.953 ± 0.019	0.9374 ± 0.0079	0.952 ± 0.021	0.898 ± 0.049
A0A087WY55|Q9NP79 (UniProt Q9NP79)	0.88 ± 0.098	0.798 ± 0.056	1.07 ± 0.15	1.03 ± 0.04	1.02 ± 0.077	0.972 ± 0.025	0.939 ± 0.091	1.06 ± 0.2
A0A0C4DG40|Q8NF91 and related entries (UniProt Q8NF91)	1.01 ± 0.016	0.968 ± 0.041	1.03 ± 0.028	0.996 ± 0.057	1.01 ± 0.052	1 ± 0.048	1.04 ± 0.053	1.01 ± 0.1
A0A0A6YYC8|I3L1I5 (UniProt I3L1I5)	1.03 ± 0.12	1.28 ± 0.046	1.31 ± 0.22	1.22 ± 0.12	1.28 ± 0.077	1.35 ± 0.068	1.29 ± 0.23	1.31 ± 0.22
A0A0A6YYG7|Q6IBW4 and related entries (UniProt Q6IBW4)	1.04 ± 0.059	1.08 ± 0.06	1.14 ± 0.022	1.1 ± 0.045	1.15 ± 0.028	1.12 ± 0.034	1.2 ± 0.053	1.16 ± 0.11
A0A0D9SFS3|P0619_C466|P0619_N466|Q02218 (UniProt Q02218)	1.11 ± 0.087	1.18 ± 0.14	1.15 ± 0.14	1.21 ± 0.19	1.23 ± 0.21	1.19 ± 0.22	1.19 ± 0.19	1.15 ± 0.16
A0A087WXS7|K7ERW9 and related entries (UniProt O43681)	0.966 ± 0.054	0.932 ± 0.021	0.865 ± 0.01	0.893 ± 0.044	0.903 ± 0.037	0.864 ± 0.034	0.821 ± 0.057	0.833 ± 0.065
A0A0A0MS41|Q9BWM7 (UniProt Q9BWM7)	1.01 ± 0.098	0.976 ± 0.095	0.958 ± 0.058	0.941 ± 0.048	0.97 ± 0.059	0.943 ± 0.052	0.931 ± 0.08	0.899 ± 0.03
A0A0A0MSI2|B3KPJ4 and related entries (UniProt Q8IXK0)	0.973 ± 0.032	0.99 ± 0.071	1.09 ± 0.042	1.14 ± 0.03	1.28 ± 0.031	1.34 ± 0.039	1.43 ± 0.043	1.53 ± 0.047
A0A087X0M4|Q9BWU0 (UniProt Q9BWU0)	1.04 ± 0.013	1.04 ± 0.034	1.09 ± 0.027	1.08 ± 0.023	1.12 ± 0.043	1.1 ± 0.065	1.17 ± 0.079	1.14 ± 0.062
A0A087WYP2|Q8IZQ5 (UniProt Q8IZQ5)	0.927 ± 0.051	0.945 ± 0.096	1.04 ± 0.057	1.06 ± 0.094	1.07 ± 0.04	1.09 ± 0.14	1.07 ± 0.079	1.16 ± 0.042
A0A0A0MQR1|Q9Y4K4 (UniProt Q9Y4K4)	0.942 ± 0.021	0.985 ± 0.031	0.887 ± 0.03	0.9 ± 0.017	0.895 ± 0.026	0.887 ± 0.06	0.86 ± 0.044	0.879 ± 0.055
A0A0C4DGQ8|Q6IAN0 (UniProt Q6IAN0)	0.947 ± 0.14	0.967 ± 0.094	0.853 ± 0.13	0.925 ± 0.031	0.89 ± 0.032	0.913 ± 0.048	0.914 ± 0.077	0.943 ± 0.071
A0A0A0MT72|E9PEC4 and related entries (UniProt Q9BSQ5)	0.929 ± 0.021	0.926 ± 0.028	0.828 ± 0.089	0.953 ± 0.082	0.939 ± 0.03	0.861 ± 0.025	0.84 ± 0.043	0.938 ± 0.091
A0A0B4J1Z5|P52657 (UniProt P52657)	0.915 ± 0.12	0.821 ± 0.12	1 ± 0.12	1.01 ± 0.1	1 ± 0.066	0.968 ± 0.084	0.933 ± 0.14	1.04 ± 0.15
A0A0C4DFM7|Q5TAX3 (UniProt Q5TAX3)	1.02 ± 0.027	1 ± 0.034	0.989 ± 0.032	0.98 ± 0.03	0.992 ± 0.064	0.985 ± 0.085	0.989 ± 0.035	0.985 ± 0.036
A0A0C4DG33|H7BZH3 and related entries (UniProt O43933)	0.955 ± 0.085	0.971 ± 0.047	0.95 ± 0.12	1 ± 0.12	1.02 ± 0.12	0.968 ± 0.17	0.988 ± 0.12	1.04 ± 0.084
A0A087X1E4|P53365 and related entries (UniProt P53365)	0.956 ± 0.05	0.853 ± 0.057	0.972 ± 0.052	0.963 ± 0.08	0.913 ± 0.088	0.906 ± 0.1	0.861 ± 0.14	0.889 ± 0.068

Reformatted as labelled records: entries from further up.
A0A087X011|E9PES4 and related entries (UniProt Q9Y496)
  NP40-soluble protein abundance (concentration: 0.1mM): 1.02 ± 0.012
  NP40-soluble protein abundance (concentration: 0.5mM): 1.025 ± 0.01
  NP40-soluble protein abundance (concentration: 1mM): 0.963 ± 0.019
  NP40-soluble protein abundance (concentration: 2mM): 0.957 ± 0.013
  NP40-soluble protein abundance (concentration: 4mM): 0.953 ± 0.019
  NP40-soluble protein abundance (concentration: 6mM): 0.9374 ± 0.0079
  NP40-soluble protein abundance (concentration: 8mM): 0.952 ± 0.021
  NP40-soluble protein abundance (concentration: 10mM): 0.898 ± 0.049
A0A087WY55|Q9NP79 (UniProt Q9NP79)
  NP40-soluble protein abundance (concentration: 0.1mM): 0.88 ± 0.098
  NP40-soluble protein abundance (concentration: 0.5mM): 0.798 ± 0.056
  NP40-soluble protein abundance (concentration: 1mM): 1.07 ± 0.15
  NP40-soluble protein abundance (concentration: 2mM): 1.03 ± 0.04
  NP40-soluble protein abundance (concentration: 4mM): 1.02 ± 0.077
  NP40-soluble protein abundance (concentration: 6mM): 0.972 ± 0.025
  NP40-soluble protein abundance (concentration: 8mM): 0.939 ± 0.091
  NP40-soluble protein abundance (concentration: 10mM): 1.06 ± 0.2
